Measurements taken from patent US20100076060.

Sequences of proteins named here, by UniProt entry; tags and fusion partners are left off. Residues count along the entry.
UniProt Q07011, 24-186: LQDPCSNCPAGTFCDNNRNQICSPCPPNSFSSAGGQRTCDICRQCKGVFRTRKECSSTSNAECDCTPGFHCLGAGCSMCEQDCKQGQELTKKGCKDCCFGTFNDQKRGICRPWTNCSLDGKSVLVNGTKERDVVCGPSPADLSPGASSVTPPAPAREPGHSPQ

Tests used:
[1] = target: 4-1BB (CD137) extracellular portion (Homo sapiens) (UniProt Q07011); test: SELEX; conditions: 2'-F pyrimidines; purified recombinant protein; protein details: human IgG1 Fc fusion
[2] = target: T1, 4-1BB (CD137) extracellular portion (Mus musculus) (UniProt P20334); test: SELEX; conditions: 2'-F pyrimidines; purified recombinant protein; protein details: human IgG1 Fc fusion
T1 sequence: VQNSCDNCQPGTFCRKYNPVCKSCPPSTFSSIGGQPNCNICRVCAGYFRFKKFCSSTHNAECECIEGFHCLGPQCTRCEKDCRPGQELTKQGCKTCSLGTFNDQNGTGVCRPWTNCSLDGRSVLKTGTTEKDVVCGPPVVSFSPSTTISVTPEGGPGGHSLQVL

Sequence	selection result [1]	selection result [2]
GGGAGAGAGGAAGAGGGAUGGGACCUGACGCAUACCUCCUCCCACCGCAAGUGCCCUCCGCUCAUAACCCAGAGGUCGAUAGUACUGGAUCCCCCC [4-1BB aptamer SEQ 51]	selected	selected
GGGAGAGAGGAAGAGGGAUGGGACCUUUACCGCCGACCCGGACAGAGUGAGCCUCUGCAGAGCAUAACCCAGAGGUCGAUAGUACUGGAUCCCCCC [4-1BB aptamer SEQ 74]	selected	selected
GGGAGAGAGGAAGAGGGAUGGGACGACCUCUUUGAUUACCUGGGCUGAUUCGCCAUCUUCACCAUAACCCAGAGGUCGAUAGUACUGGAUCCCCCC [4-1BB aptamer SEQ 53]	selected	selected
GGGAGAGAGGAAGAGGGAUGGGACGACCUCUUUGAUUACCUGGGCUGAUUUGCCAUCUUCACCAUAACCCAGAGGUCGAUAGUACUGGAUCCCCCC [4-1BB aptamer SEQ 52]	selected	selected
GGGAGAGAGGAAGAGGGAUGGGAUACCUGUACCUUGCAACACUGCCCGACGACGCACCCGCACAUAACCCAGAGGUCGAUAGUACUGGAUCCCCCC [4-1BB aptamer SEQ 71]	selected	selected
GGGAGAGAGGAAGAGGGAUGGGCAAACUUCCCUGUGGUUAUAGCACUGCGUUGGGUCCCUUGCAUAACCCAGAGGUCGAUAGUACUGGAUCCCCCC [4-1BB aptamer SEQ 70]	selected	selected
GGGAGAGAGGAAGAGGGAUGGGCACCAUCGAUAUCACGCACUGACACCAGUACCCUUGCGCACAUAACCCAGAGGUCGAUAGUACUGGAUCCCCCC [4-1BB aptamer SEQ 55]	selected	selected
GGGAGAGAGGAAGAGGGAUGGGCACCCUUCGUCUCAACCACCCAACUCUCCAUGUCCCUAACCAUAACCCAGAGGUCGAUAGUACUGGAUCCCCCC [4-1BB aptamer SEQ 69]	selected	selected
GGGAGAGAGGAAGAGGGAUGGGCACCUUCCCUUUCUCCAAGACAAGCCUCAUGUCAAACUCUCAUAACCCAGAGGUCGAUAGUACUGGAUCCCCCC [4-1BB aptamer SEQ 66]	selected	selected
GGGAGAGAGGAAGAGGGAUGGGCACUUCCACUCACAACGGCAAAACUUCAACUCCAAUACCCUCAUAACCCAGAGGUCGAUAGUACUGGAUCCCCCC [4-1BB aptamer SEQ 63]	selected	selected
GGGAGAGAGGAAGAGGGAUGGGCCACACGCUACUAUCAACCGCUGCGUUCAAACUUGGGAUCCAUAACCCAGAGGUCGAUAGUACUGGAUCCCCCC [4-1BB aptamer SEQ 72]	selected	selected
GGGAGAGAGGAAGAGGGAUGGGCCCCCGCGUCCUCCCAACCCAAAAUUCCCCUGGCACCCUCCAUAACCCAGAGGUCGAUAGUACUGGAUCCCCCC [4-1BB aptamer SEQ 59]	selected	selected
GGGAGAGAGGAAGAGGGAUGGGCCGACGACCUCCUUCACCUCCCCUUCCUCGAACUCCAACCCAUAACCCAGAGGUCGAUAGUACUGGAUCCCCCC [4-1BB aptamer SEQ 50]	selected	selected
GGGAGAGAGGAAGAGGGAUGGGCCUCACUGCGUAAUCCGCCGUGAUUCACCGCUGUACACGACAUAACCCAGAGGUCGAUAGUACUGGAUCCCCCC [4-1BB aptamer SEQ 54]	selected	selected
GGGAGAGAGGAAGAGGGAUGGGCGAUCCUCUGUACACGACACUCAUUCCACAGUACGGGACGCAUAACCCAGAGGUCGAUAGUACUGGAUCCCCCC [4-1BB aptamer SEQ 68]	selected	selected
GGGAGAGAGGAAGAGGGAUGGGCGCACUACCUGCACAUUGACCAGUACCCCUGUGCCACGCUCAUAACCCAGAGGUCGAUAGUACUGGAUCCCCCC [4-1BB aptamer SEQ 49]	selected	selected
GGGAGAGAGGAAGAGGGAUGGGCUCCAGAACCCUUCGACCUGCACGACGGUCUUCCUCGCGUCAUAACCCAGAGGUCGAUAGUACUGGAUCCCCCC [4-1BB aptamer SEQ 75]	selected	selected
GGGAGAGAGGAAGAGGGAUGGGCUCCAGACAUAGUAUCCGCCAGUAACCUCUGUAACGCCCGCAUAACCCAGAGGUCGAUAGUACUGGAUCCCCCC [4-1BB aptamer SEQ 48]	selected	selected
GGGAGAGAGGAAGAGGGAUGGGGAAACCUGUGCGCAUGAAGAGCUGCUAACCCGUUACGAACCAUAACCCAGAGGUCGAUAGUACUGGAUCCCCCC [4-1BB aptamer SEQ 57]	selected	selected
GGGAGAGAGGAAGAGGGAUGGGGACCAGUCUAACCAUCCACACUCUGUCAUUGCCCAGCGCCCAUAACCCAGAGGUCGAUAGUACUGGAUCCCCCC [4-1BB aptamer SEQ 73]	selected	selected
GGGAGAGAGGAAGAGGGAUGGGGAUCAAACUAAUCGCCCUCUAACUUGAUCGGCCCGACUCCCAUAACCCAGAGGUCGAUAGUACUGGAUCCCCCC [4-1BB aptamer SEQ 58]	selected	selected
GGGAGAGAGGAAGAGGGAUGGGGCCUUUACACCGACCCUGCCAAGAACGAAGCGCGAACAACCAUAACCCAGAGGUCGAUAGUACUGGAUCCCCCC [4-1BB aptamer SEQ 65]	selected	selected
GGGAGAGAGGAAGAGGGAUGGGGGAUCGACCCGCUUGCUGCGACACGACCGUCGUAACCAACAUAACCCAGAGGUCGAUAGUACUGGAUCCCCCC [4-1BB aptamer SEQ 61]	selected	selected
GGGAGAGAGGAAGAGGGAUGGGGGCUUCCCUGCACUUGAUCUGGCCCGACCACCAGCCUGUGCAUAACCCAGAGGUCGAUAGUACUGGAUCCCCCC [4-1BB aptamer SEQ 67]	selected	selected
GGGAGAGAGGAAGAGGGAUGGGUGCGAUCCACGGUCUAUUCACCAGUAACCUCUGACCAAAACAUAACCCAGAGGUCGAUAGUACUGGAUCCCCCC [4-1BB aptamer SEQ 47]	selected	selected
GGGAGAGAGGAAGAGGGAUGGGUGCUCCAAUCGGAACCAUCUCGCCGCUCGCUCUCCAUUACCAUAACCCAGAGGUCGAUAGUACUGGAUCCCCCC [4-1BB aptamer SEQ 56]	selected	selected
GGGAGAGAGGAAGAGGGAUGGGUGCUCUUAAUCUCCCUAAGAACCAUCUCCAUAGUCCUCCGCAUAACCCAGAGGUCGAUAGUACUGGAUCCCCCC [4-1BB aptamer SEQ 60]	selected	selected
GGGAGAGAGGAAGAGGGAUGGGUGGAUCUCGCUCUGGCGCUUAGCUCCGCAAAUCUGCCGUUCAUAACCCAGAGGUCGAUAGUACUGGAUCCCCCC [4-1BB aptamer SEQ 62]	selected	selected

For at least one entry, the source does not settle the construct or the ends of the probe.
